These are yes or no findings as the source states them, for the method shown.
Molecular target: ParB (S. pneumoniae D39)
Test: MST; 100 nM ParB labeled with NT-647, titrated with CpsC/D (4 nM to 92 μM) or BSA (5 nM to 180 μM); Monolith NT.115; 25°C; 50 mM Tris-HCl, 150 mM NaCl, 10 mM MgCl2, 0.05% Tween-20; both purified

By UniProt entry, the sequences of proteins in these tests, tags left out. Residues count along the entry.
UniProt P02769, residues 25-607: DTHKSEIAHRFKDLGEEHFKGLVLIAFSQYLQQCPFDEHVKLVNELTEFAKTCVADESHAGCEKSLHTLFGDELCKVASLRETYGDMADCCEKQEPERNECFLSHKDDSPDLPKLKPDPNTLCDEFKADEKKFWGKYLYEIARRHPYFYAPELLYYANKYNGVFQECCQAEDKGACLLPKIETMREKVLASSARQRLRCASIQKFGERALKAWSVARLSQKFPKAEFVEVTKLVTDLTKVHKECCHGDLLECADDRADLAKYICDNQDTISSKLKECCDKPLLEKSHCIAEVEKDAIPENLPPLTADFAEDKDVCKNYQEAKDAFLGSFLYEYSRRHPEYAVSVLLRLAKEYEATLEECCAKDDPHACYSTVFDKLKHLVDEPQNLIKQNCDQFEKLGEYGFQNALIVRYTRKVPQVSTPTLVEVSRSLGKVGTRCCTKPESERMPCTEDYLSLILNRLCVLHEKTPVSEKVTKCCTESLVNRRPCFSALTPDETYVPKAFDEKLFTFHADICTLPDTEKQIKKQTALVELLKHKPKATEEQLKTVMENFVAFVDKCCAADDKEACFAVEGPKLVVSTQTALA

## BSA (Bovine Serum Albumin) (from UniProt P02769 25-607)
  binding: no binding (tested: 5 nM to 180 μM BSA)

From paper PMC4574921
